Reference: publication PMC12540828, “Fexofenadine protects against osteoarthritis by targeting Smad2 and STAT1 to enhance anabolism and binding cPLA2 to inhibit catabolism” (Cell Death Discovery, 2025)
Results are given in words; binding and its absence hold for the method and conditions named. In cells and extracts the contact can be indirect. Some entries that bind do so weakly or less than the wild type.

Amino acid sequences for entries named in this document (tags omitted).
UniProt P42224: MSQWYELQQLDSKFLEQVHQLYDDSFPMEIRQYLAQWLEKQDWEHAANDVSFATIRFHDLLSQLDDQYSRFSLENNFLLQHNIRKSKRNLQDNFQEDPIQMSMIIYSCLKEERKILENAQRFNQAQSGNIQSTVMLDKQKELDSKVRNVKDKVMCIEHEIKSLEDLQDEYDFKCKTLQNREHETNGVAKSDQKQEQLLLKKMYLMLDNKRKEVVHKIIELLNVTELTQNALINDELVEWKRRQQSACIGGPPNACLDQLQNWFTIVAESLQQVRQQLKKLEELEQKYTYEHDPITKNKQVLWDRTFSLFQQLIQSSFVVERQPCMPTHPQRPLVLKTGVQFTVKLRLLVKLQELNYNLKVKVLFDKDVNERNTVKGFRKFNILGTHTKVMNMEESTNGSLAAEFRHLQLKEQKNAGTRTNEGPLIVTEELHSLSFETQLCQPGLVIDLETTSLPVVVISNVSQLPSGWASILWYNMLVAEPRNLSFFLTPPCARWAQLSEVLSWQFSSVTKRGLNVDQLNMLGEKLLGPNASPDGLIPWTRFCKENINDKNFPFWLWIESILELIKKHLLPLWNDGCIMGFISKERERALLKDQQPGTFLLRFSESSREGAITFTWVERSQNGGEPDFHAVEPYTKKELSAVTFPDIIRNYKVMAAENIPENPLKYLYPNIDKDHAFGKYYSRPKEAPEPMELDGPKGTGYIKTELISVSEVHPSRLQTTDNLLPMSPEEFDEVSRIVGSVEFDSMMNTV

Molecular target: T1, Activin Receptor-Like Kinase 5 (ALK5) (human (endogenous in human chondrocytes)) (UniProt P36897)
T1 sequence: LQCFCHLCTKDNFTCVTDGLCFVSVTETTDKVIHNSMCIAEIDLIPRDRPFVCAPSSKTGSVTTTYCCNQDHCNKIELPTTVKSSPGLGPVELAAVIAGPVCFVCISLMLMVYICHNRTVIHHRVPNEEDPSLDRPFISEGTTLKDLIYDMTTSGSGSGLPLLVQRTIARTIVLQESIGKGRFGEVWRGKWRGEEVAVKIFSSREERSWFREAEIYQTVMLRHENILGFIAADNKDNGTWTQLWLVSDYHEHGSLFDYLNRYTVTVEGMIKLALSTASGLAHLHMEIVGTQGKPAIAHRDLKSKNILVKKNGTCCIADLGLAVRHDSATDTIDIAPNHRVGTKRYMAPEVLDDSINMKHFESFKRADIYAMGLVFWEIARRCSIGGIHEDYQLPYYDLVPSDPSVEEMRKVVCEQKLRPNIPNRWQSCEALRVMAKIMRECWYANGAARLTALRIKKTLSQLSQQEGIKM
Experiment: co-IP; human chondrocyte lysate (1 mg protein) incubated with anti-ALK5 antibody (4 ug) at 4 °C for 4-6 h, Protein A/G Sepharose beads, washed 4-6 times with lysis buffer, Western blot; without FFD

binding: binds
Substance: Signal Transducer and Activator of Transcription 1 (STAT1) (from UniProt P42224 1-750)
